## Library screening results

Protein sequences, listed by entry. Tags and fused reporters are not part of them.
UniProt E9BF75, entry or part of it: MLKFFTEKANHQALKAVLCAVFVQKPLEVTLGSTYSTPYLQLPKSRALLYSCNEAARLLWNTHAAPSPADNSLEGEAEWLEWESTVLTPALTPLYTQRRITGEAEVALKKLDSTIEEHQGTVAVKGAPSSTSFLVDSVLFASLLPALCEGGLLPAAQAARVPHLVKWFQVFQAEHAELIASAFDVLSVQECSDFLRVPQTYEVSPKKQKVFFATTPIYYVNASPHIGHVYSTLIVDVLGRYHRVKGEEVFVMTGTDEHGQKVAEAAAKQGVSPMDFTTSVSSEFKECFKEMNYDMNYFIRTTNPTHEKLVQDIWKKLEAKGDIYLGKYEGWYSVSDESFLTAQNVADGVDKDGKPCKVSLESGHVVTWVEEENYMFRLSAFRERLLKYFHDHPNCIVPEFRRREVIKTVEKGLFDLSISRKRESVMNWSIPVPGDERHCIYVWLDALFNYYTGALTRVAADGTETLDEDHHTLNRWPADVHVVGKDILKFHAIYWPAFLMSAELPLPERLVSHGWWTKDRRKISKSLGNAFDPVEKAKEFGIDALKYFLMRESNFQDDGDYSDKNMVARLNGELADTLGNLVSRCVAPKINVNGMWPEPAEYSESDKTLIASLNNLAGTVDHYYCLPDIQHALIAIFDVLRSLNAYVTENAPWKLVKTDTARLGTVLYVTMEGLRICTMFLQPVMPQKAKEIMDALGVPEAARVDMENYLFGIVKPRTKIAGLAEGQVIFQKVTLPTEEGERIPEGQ

Mtb heat-shock: 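Assay on Mycobacterium tuberculosis, filed only as a heat shock assay from Cornell; the read-out is not stated. The concentration is filed as 10 mM, unlikely as a test dose, so the dose is not known. Higher reads as stronger inhibition (inferred: compounds with an IC50 in retests scored well above the rest). Of about 69,000 compounds tested this way, about 930 (1.4%) reached 50% or more in at least one test.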
LdMetRS: 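Methionyl-tRNA synthetase (putative), Leishmania donovani (UniProt E9BF75). Primary screen of methionyl-tRNA synthetase; the read-out is not stated. The test concentration is not given. Values are per cent inhibition. Of about 68,000 compounds tested this way, about 24 (0.035%) reached 50% or more in at least one test.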
Mtb growth Cornell: 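Whole-cell assay for inhibitors of Mycobacterium tuberculosis growth, labelled Cornell in the record; the read-out is not stated. The concentration is filed as 10 mM, unlikely as a test dose, so the dose is not known. Higher means stronger inhibition (inferred from two other growth screens of the library). Size under these conditions: about 53,000 compounds, about 900 of them at 50% or above in at least one test.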

All values are in %. How 0% and 100% were set is not recorded. Most values in the screen are low, and negative values occur. This is an unselected part of the compounds tested.

{"compound": "O=C(c1ccc(Cl)cc1)N1CCn2c(nn(-c3ccc(Cl)cc3)c2=O)C1", "Mtb heat-shock": -1.912, "LdMetRS": 7.429}
{"compound": "CC(C)N(C)CCNC(=O)NCc1ccccc1-n1cccn1", "Mtb heat-shock": -4.09, "LdMetRS": 13.69, "Mtb growth Cornell": -7.638}
{"compound": "CC(C)Cc1nc(CN2CCC(N3CCN(C)C3=O)CC2)no1", "Mtb heat-shock": -30.46, "LdMetRS": 11.45, "Mtb growth Cornell": -53.3}
{"compound": "CC(C)(C)c1n[nH]cc1CNCC1CCN(C2CC2)C1.Cl", "stereo": "centres unmarked", "Mtb heat-shock": 85.37, "Mtb growth Cornell": 94.59}
{"compound": "CCCNC(=O)CCNC(=O)N1CCc2c(F)ccc(F)c2C1", "Mtb heat-shock": -1.654, "LdMetRS": 11.56, "Mtb growth Cornell": -3.693}
{"compound": "COc1cnc(C2(O)CCN(C(=O)c3ccncc3)CC2)c(OC)n1", "Mtb heat-shock": -26, "LdMetRS": 17.47, "Mtb growth Cornell": 11.57}
{"compound": "N#Cc1cccc(NC(=O)N2CCC3(CCC(=O)N(C4CC4)C3)CC2)c1", "Mtb heat-shock": -22.51, "LdMetRS": 2.326, "Mtb growth Cornell": 22.05}
{"compound": "O=C(Cc1ccsc1)N1CCN(CC2CC2)c2ncccc2C1", "LdMetRS": 10.99}
{"compound": "[H][C@@]12CS(=O)(=O)C[C@]1([H])N(C(=O)Cc1ccc(F)c(C)c1)CCN2C", "Mtb heat-shock": -12.21, "Mtb growth Cornell": -30.56}
{"compound": "COCCNc1ccc(CC2CCCN(C3CCCC3)C2)nn1", "stereo": "centres unmarked", "Mtb heat-shock": -9.62, "LdMetRS": 13.37, "Mtb growth Cornell": 39.43}
{"compound": "O=C(NCCCN1CCOCC1)c1ccn(-c2ccc3ccccn23)n1", "LdMetRS": 14.16}
{"compound": "Nc1ncncc1-c1noc([C@@H]2CCCN2Cc2cccnc2)n1", "Mtb heat-shock": -15.28, "LdMetRS": 7.797, "Mtb growth Cornell": 1.936}
{"compound": "NC(=O)c1cc(C2CCCN(C(=O)CCc3ccncc3)C2)n[nH]1", "stereo": "centres unmarked", "Mtb heat-shock": 3.19, "LdMetRS": 16.48}
{"compound": "COCCC(=O)N1CC[C@@H](N2CCN(C)CC2)[C@@H]1Cc1ccccc1", "Mtb heat-shock": 11.09, "LdMetRS": 10.8, "Mtb growth Cornell": 30.35}
{"compound": "CC(C)c1nccn1C1CCCN(C(=O)CN(C)C2CC2)C1", "stereo": "centres unmarked", "Mtb heat-shock": -10.44, "LdMetRS": 6.857, "Mtb growth Cornell": 8.11}
{"compound": "CC1CN(C(=O)NCCn2ccnc2)CCO1", "stereo": "centres unmarked", "Mtb heat-shock": 2.634, "LdMetRS": -6.41, "Mtb growth Cornell": 22.65}
{"compound": "Cc1nnc2ccc(N3CCN(CCc4ccccn4)CC3)nn12", "Mtb heat-shock": 2.353, "LdMetRS": 20.45}
{"compound": "CCc1c(C)sc2c1c(N)nc(=O)n2CCN(C)C", "Mtb heat-shock": -7.104, "LdMetRS": 2.517, "Mtb growth Cornell": -15.89}
{"compound": "CC(O)CN1CCC(CN(C)CC(=O)NC(C)C)CC1", "stereo": "centres unmarked", "Mtb heat-shock": -19.76, "LdMetRS": 11.11, "Mtb growth Cornell": 12.75}
{"compound": "Cc1ncsc1C(=O)N(C)CCc1ccncc1", "Mtb heat-shock": 3.772, "LdMetRS": 18.37}
{"compound": "c1cnn(C2CN(Cc3nc(-c4ccsc4)no3)C2)c1", "Mtb heat-shock": -0.7645, "LdMetRS": 12.24}
{"compound": "CC(C)(C)C(=O)N1CCC2(COCc3cnc(N4CCOCC4)nc32)C1", "stereo": "centres unmarked", "Mtb heat-shock": 4.765, "LdMetRS": 14.52}
{"compound": "CS(=O)(=O)N[C@@H]1CCN(Cc2ccncc2)[C@H]1Cc1cccnc1", "Mtb heat-shock": -6.762, "LdMetRS": 11.75, "Mtb growth Cornell": 22.43}
{"compound": "Cc1noc(CCCC(=O)N2CCCCC2CNS(C)(=O)=O)n1", "stereo": "centres unmarked", "Mtb heat-shock": -6.392, "LdMetRS": 10.63, "Mtb growth Cornell": 20.2}
{"compound": "CCN1CCOC(CNCc2ccc(C)s2)C1", "stereo": "centres unmarked", "Mtb heat-shock": -24.46, "LdMetRS": 4.05, "Mtb growth Cornell": 15.52}
{"compound": "CCCn1nc(C)c(CNS(=O)(=O)NCc2ccccc2)c1C", "Mtb heat-shock": 6.332, "LdMetRS": 10.09, "Mtb growth Cornell": -12.64}
{"compound": "CCN1CCC2(CC1)CC(NC(=O)c1ccnnc1)c1ccccc12.O=C(O)C(F)(F)F", "stereo": "centres unmarked", "Mtb heat-shock": -19.93, "Mtb growth Cornell": 28.18}
{"compound": "CC1=N[C@@]2(CC[C@@H]3CN(Cc4ccc(C)cc4)C[C@@H]32)C(=O)N1CC1CC1", "LdMetRS": 11.86}
{"compound": "c1cnc(OCc2nnc3n2CCN(Cc2ccco2)C3)nc1", "Mtb heat-shock": 2.857, "LdMetRS": 15.79, "Mtb growth Cornell": -31.48}
{"compound": "COc1ccc(CN2Cc3nnn(C)c3C(COCCN(C)C)C2)cc1", "stereo": "centres unmarked", "LdMetRS": 20.3}

Source: ChEMBL document CHEMBL3988442, “University of Dundee, Small-Polar-MMV Screening Library” (2021).